This is one part of the list.
Assays:
Test in all cases: log2 fold change, soluble protein after heating vs DMSO (PISA); higher = thermal stabilisation; K562 cells, 10 uM, 30 min; active = over 0.2 and 3.5 SD of the protein, either way, in both replicates (recomputed)
[1] = compound: COC1=CC=C(C=C1)CN2C=CC3=C2C=C(C=C3)C(=O)NO
Summary of the method: (§1)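 K562 cells at 2×10^6 cells/mL were exposed to 10 μM compound for 30 min, then aliquots were heated for 3 min across 48°C-58°C, pooled, and extracted in PBS containing 0.5% NP-40 at 4°C. The supernatant after 21,000xg for 90 min was taken as soluble protein and measured by TMTpro 16plex LC-MS/MS with channel sums equalised. Thermal stability is reported relative to control samples, with values from duplicates. Fold changes are given on a log2 scale.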

Sequences of proteins named here, by UniProt entry; tags and fusion partners are left off. A change or cut given only in a name is not applied to a line headed by its entry.
UniProt Q5T4F4: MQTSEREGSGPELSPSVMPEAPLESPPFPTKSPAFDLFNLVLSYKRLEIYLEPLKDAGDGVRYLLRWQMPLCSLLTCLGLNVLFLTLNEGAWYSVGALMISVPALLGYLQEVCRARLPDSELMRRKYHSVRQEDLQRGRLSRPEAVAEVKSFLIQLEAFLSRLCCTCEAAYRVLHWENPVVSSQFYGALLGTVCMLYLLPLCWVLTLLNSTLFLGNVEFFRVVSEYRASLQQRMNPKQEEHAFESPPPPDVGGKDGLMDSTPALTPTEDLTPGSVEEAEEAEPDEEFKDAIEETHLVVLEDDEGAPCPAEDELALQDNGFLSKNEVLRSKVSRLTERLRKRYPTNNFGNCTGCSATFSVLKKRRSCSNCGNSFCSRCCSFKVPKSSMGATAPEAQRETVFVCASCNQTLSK
UniProt Q13426: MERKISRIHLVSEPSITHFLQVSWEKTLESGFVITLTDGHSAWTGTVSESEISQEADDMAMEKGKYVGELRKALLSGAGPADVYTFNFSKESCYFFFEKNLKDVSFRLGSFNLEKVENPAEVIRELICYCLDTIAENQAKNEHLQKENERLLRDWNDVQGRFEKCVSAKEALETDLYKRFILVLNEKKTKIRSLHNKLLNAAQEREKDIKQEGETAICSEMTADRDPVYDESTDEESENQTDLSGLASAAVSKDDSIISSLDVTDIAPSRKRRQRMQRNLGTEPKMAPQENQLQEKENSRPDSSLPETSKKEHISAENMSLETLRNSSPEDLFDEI
UniProt O43542: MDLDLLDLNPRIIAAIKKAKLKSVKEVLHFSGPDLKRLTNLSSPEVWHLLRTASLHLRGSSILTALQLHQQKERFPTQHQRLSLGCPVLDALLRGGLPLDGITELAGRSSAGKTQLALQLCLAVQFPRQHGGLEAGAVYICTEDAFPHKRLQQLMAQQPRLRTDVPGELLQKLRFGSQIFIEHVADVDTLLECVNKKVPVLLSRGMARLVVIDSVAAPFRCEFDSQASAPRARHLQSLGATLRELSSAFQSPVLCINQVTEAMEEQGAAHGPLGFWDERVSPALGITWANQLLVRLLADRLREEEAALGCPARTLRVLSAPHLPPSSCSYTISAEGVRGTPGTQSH
UniProt Q9UBH6: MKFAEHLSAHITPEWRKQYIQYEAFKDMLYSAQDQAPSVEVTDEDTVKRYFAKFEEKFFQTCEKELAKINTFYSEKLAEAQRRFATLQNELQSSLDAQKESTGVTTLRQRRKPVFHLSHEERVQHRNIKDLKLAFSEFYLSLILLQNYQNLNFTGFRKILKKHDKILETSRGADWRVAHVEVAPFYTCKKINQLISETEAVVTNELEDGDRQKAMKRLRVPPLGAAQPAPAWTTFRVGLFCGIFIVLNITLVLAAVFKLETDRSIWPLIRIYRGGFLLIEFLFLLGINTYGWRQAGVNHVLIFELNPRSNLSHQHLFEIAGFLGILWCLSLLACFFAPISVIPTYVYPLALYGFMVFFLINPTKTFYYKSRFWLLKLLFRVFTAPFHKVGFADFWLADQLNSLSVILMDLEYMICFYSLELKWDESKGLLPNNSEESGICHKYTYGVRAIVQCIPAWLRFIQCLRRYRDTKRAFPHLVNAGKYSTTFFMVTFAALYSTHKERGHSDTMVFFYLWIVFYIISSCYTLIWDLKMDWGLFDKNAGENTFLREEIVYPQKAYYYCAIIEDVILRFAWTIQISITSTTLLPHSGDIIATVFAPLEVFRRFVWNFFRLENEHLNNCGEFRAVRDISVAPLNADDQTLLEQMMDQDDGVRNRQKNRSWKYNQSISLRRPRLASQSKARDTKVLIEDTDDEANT
UniProt Q04917: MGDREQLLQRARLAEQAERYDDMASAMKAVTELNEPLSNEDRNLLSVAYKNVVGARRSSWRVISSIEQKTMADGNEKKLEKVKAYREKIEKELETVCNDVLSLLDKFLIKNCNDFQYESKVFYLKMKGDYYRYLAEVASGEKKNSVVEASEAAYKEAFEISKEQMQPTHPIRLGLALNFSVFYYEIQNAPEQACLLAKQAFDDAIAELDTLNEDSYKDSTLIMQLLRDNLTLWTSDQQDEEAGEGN
UniProt Q9NUE0: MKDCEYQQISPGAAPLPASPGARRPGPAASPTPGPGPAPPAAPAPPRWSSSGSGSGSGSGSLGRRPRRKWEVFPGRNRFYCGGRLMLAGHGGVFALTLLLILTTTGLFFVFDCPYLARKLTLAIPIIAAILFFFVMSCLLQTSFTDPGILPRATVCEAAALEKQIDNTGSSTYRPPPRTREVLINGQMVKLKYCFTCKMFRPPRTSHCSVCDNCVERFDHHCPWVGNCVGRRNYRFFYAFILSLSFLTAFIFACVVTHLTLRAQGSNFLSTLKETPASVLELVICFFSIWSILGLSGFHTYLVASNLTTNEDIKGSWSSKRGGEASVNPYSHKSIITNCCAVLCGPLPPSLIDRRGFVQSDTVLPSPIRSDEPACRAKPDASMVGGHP
UniProt Q8IY57: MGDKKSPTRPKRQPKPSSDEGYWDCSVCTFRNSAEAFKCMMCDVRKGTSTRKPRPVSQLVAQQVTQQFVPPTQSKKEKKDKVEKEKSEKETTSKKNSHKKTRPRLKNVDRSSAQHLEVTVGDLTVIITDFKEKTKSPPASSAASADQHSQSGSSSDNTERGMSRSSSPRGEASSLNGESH
UniProt Q9GZM5: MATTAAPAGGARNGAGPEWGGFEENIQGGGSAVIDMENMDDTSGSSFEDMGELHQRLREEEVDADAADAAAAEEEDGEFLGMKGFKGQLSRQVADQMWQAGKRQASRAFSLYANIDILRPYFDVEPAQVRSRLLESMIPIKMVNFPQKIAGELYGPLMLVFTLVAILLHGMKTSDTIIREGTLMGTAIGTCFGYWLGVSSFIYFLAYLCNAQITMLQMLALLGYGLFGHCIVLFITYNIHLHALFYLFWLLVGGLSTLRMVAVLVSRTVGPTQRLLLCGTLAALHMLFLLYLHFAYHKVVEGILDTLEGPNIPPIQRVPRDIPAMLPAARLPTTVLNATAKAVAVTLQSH
UniProt Q6NZY4: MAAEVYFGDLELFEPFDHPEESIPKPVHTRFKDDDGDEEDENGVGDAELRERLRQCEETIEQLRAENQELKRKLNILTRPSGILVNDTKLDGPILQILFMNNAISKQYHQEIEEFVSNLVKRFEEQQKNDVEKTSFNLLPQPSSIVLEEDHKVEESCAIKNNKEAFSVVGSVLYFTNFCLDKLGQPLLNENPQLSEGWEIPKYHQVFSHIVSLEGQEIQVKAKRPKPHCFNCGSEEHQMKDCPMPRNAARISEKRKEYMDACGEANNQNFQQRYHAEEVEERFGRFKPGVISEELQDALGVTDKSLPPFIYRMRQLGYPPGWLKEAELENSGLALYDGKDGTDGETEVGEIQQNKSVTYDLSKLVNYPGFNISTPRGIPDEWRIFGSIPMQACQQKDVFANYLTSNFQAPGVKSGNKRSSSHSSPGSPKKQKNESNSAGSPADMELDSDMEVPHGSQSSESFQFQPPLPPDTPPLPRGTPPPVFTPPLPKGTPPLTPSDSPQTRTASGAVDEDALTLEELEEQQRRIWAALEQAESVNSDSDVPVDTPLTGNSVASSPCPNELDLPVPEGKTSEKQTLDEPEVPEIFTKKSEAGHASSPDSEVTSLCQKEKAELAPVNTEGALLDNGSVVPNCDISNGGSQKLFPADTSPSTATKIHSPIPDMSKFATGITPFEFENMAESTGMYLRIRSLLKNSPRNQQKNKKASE
UniProt Q8WU90: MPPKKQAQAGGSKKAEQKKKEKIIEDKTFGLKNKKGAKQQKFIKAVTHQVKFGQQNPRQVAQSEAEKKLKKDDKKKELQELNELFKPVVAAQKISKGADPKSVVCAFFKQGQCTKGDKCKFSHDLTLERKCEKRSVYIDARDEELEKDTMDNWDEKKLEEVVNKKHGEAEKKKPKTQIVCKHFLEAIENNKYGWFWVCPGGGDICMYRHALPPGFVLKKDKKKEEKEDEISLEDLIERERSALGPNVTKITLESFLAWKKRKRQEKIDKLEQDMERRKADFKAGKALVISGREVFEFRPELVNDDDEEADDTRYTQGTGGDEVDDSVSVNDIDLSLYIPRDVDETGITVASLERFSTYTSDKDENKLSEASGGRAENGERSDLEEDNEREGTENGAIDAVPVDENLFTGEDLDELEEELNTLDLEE
UniProt Q8IWT0: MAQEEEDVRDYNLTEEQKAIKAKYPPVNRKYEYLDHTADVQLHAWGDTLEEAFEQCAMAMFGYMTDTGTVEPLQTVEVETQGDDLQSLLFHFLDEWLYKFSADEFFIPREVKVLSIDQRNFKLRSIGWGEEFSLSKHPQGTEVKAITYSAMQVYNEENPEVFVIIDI
UniProt Q9UQR1: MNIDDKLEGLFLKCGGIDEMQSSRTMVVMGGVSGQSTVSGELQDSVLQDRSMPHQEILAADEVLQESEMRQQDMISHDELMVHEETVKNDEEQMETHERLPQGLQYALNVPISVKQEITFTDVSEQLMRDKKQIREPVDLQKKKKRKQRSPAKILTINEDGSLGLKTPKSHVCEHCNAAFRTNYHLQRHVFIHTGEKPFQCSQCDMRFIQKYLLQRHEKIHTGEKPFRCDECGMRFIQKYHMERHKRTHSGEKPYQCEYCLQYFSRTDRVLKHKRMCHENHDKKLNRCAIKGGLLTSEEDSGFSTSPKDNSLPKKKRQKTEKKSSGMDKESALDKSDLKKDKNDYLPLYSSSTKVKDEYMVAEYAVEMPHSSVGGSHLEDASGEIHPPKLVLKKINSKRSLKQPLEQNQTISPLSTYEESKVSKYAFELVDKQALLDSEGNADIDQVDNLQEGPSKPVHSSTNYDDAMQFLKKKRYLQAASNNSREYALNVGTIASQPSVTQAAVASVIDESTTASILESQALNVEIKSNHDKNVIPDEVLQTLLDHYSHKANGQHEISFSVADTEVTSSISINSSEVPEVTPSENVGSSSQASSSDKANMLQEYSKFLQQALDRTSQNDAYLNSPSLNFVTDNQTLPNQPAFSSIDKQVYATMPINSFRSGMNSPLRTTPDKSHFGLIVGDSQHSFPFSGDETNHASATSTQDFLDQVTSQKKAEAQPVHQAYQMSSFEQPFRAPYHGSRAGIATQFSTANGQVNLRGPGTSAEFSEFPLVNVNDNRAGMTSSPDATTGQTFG
UniProt Q96K21: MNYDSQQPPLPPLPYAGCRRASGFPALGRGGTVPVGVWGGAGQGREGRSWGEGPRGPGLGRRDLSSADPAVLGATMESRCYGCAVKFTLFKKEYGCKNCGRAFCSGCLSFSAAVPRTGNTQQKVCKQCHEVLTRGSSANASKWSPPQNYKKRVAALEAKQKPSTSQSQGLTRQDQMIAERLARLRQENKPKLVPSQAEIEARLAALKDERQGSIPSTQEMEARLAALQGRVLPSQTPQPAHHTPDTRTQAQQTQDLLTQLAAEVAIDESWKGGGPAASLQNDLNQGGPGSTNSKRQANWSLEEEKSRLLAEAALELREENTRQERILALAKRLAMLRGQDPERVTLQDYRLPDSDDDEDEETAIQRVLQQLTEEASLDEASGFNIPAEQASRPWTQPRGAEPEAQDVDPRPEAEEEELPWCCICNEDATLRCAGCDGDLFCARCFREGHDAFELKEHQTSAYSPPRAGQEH
UniProt Q9Y2Z4: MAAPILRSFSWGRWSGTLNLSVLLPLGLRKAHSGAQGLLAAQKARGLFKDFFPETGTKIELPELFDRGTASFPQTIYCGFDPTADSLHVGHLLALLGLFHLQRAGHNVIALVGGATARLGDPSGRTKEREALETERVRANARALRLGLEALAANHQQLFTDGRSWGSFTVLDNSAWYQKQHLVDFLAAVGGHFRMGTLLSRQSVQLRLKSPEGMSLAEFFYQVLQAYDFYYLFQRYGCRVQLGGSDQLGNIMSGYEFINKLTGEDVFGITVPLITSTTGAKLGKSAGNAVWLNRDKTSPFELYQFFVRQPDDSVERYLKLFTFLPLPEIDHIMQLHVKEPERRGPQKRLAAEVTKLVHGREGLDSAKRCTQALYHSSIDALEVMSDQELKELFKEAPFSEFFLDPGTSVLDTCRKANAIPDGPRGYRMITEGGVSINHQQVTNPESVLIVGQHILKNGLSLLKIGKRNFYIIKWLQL
UniProt P54577: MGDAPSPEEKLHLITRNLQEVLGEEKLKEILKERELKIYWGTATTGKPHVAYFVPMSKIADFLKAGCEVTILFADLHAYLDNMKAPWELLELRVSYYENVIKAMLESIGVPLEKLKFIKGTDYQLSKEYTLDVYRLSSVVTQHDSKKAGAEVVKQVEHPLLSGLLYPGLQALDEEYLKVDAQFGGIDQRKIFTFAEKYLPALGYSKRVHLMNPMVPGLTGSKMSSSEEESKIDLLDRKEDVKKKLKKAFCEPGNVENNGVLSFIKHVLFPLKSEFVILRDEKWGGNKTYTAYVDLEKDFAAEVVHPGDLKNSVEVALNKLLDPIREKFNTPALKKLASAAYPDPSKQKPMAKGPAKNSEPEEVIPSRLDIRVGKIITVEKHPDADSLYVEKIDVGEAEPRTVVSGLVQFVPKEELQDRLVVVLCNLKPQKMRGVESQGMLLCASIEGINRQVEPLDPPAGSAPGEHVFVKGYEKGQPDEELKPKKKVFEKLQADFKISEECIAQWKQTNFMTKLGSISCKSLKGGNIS

filanesib = compound: CON(C)C(=O)N1N=C(c2cc(F)ccc2F)S[C@@]1(CCCN)c1ccccc1 [filanesib]
Summary of the method: as §1

zotarolimus = compound: CO[C@H]1C[C@@H]2CC[C@@H](C)[C@@](O)(O2)C(=O)C(=O)N2CCCC[C@H]2C(=O)O[C@H]([C@H](C)C[C@@H]2CC[C@H](n3cnnn3)[C@H](OC)C2)CC(=O)[C@H](C)/C=C(\C)[C@@H](O)[C@@H](OC)C(=O)[C@H](C)C[C@H](C)/C=C/C=C/C=C/1C [zotarolimus]
Summary of the method: as §1

idasanutlin = compound: COc1cc(C(=O)O)ccc1NC(=O)[C@@H]1N[C@@H](CC(C)(C)C)[C@](C#N)(c2ccc(Cl)cc2F)[C@H]1c1cccc(Cl)c1F [idasanutlin]
Summary of the method: as §1

alisertib = compound: COc1cc(Nc2ncc3c(n2)-c2ccc(Cl)cc2C(c2c(F)cccc2OC)=NC3)ccc1C(=O)O [alisertib]
Summary of the method: as §1

[2] = compound: COc1cc2nc(-c3cc(F)ccc3O)nc(N[C@@H]3CNC[C@H]3C(C)(C)O)c2cc1OC
Summary of the method: as §1

gefitinib = compound: COc1cc2ncnc(Nc3ccc(F)c(Cl)c3)c2cc1OCCCN1CCOCC1 [gefitinib]
Summary of the method: as §1

[3] = compound: COc1cccc2cc(-c3nc([C@H]4CC[C@H](C(=O)O)CC4)n4ncnc(N)c34)[nH]c12
Summary of the method: as §1

lapatinib = compound: CS(=O)(=O)CCNCc1ccc(-c2ccc3ncnc(Nc4ccc(OCc5cccc(F)c5)c(Cl)c4)c3c2)o1 [lapatinib]
Summary of the method: as §1

pictilisib = compound: CS(=O)(=O)N1CCN(Cc2cc3nc(-c4cccc5[nH]ncc45)nc(N4CCOCC4)c3s2)CC1 [pictilisib]
Summary of the method: as §1

[4] = compound: CS(=O)(=O)c1ccc(-c2cnc(N)c(C(=O)Nc3ccccc3)n2)cc1
Summary of the method: as §1

crizotinib = compound: C[C@@H](Oc1cc(-c2cnn(C3CCNCC3)c2)cnc1N)c1c(Cl)ccc(F)c1Cl [crizotinib]
Summary of the method: as §1

[5] = compound: C[C@@H]1COCCN1C2=NC(=NC(=C2)C3(CC3)S(=O)(=O)C)C4=C5C=CNC5=CC=C4
Summary of the method: as §1

[6] = compound: C[C@H](C1=CC=C(C=C1)C(=O)NC2=C3C=CNC3=NC=C2)N
Summary of the method: as §1

duvelisib = compound: C[C@H](Nc1ncnc2nc[nH]c12)c1cc2cccc(Cl)c2c(=O)n1-c1ccccc1 [duvelisib]
Summary of the method: as §1

gandotinib = compound: Cc1cc(Nc2cc(CN3CCOCC3)c3nc(C)c(Cc4ccc(Cl)cc4F)n3n2)n[nH]1 [gandotinib]
Summary of the method: as §1

tozasertib = compound: Cc1cc(Nc2cc(N3CCN(C)CC3)nc(Sc3ccc(NC(=O)C4CC4)cc3)n2)n[nH]1 [tozasertib]
Summary of the method: as §1

[7] = compound: Cc1cc(SCc2sc(-c3ccc(C(F)(F)F)cc3)nc2C)ccc1OCC(=O)O
Summary of the method: as §1

doramapimod = compound: Cc1ccc(-n2nc(C(C)(C)C)cc2NC(=O)Nc2ccc(OCCN3CCOCC3)c3ccccc23)cc1 [doramapimod]
Summary of the method: as §1

ispinesib = compound: Cc1ccc(C(=O)N(CCCN)[C@@H](c2nc3cc(Cl)ccc3c(=O)n2Cc2ccccc2)C(C)C)cc1 [ispinesib]
Summary of the method: as §1

Measured: log2 fold change

ZFYVE27 isoform 2 (UniProt Q5T4F4)
inactive: [1] 0.007 | filanesib -0.141 | zotarolimus 0.038 | idasanutlin 0.029 | alisertib 0.008 | [2] 0.032 | gefitinib 0.012 | [3] 0.047 | lapatinib -0.001 | pictilisib -0.079 | [4] 0.012 | crizotinib -0.139 | [5] -0.087 | [6] -0.008 | duvelisib 0.035 | gandotinib -0.057 | tozasertib 0.042 | [7] -0.015 | doramapimod -0.175 | ispinesib 0.032

XRCC4 (UniProt Q13426)
inactive: [1] 0.05 | filanesib -0.016 | zotarolimus -0.027 | idasanutlin -0.017 | alisertib -0.013 | [2] 0.063 | gefitinib 0 | [3] 0.045 | lapatinib 0.002 | pictilisib 0.032 | [4] 0.015 | crizotinib 0.047 | [5] 0.05 | [6] -0.043 | duvelisib 0.021 | gandotinib -0.08 | tozasertib 0.009 | [7] 0.007 | doramapimod -0.009 | ispinesib -0.005

XRCC3 (UniProt O43542)
inactive: [1] 0.075 | filanesib -0.056 | zotarolimus -0.031 | idasanutlin 0.019 | alisertib -0.069 | [2] 0.044 | gefitinib 0.053 | [3] -0.021 | lapatinib -0.024 | pictilisib -0.177 | [4] -0.036 | crizotinib -0.012 | [5] -0.03 | [6] -0.03 | duvelisib 0.067 | gandotinib 0.054 | tozasertib -0.003 | [7] -0.003 | doramapimod -0.104 | ispinesib 0.1

XPR1 (UniProt Q9UBH6)
inactive: [1] -0.056 | filanesib 0.072 | zotarolimus -0.002 | idasanutlin -0.009 | alisertib -0.067 | [2] 0.007 | gefitinib 0.001 | [3] 0.013 | lapatinib 0.016 | pictilisib 0.07 | [4] 0.025 | crizotinib 0.037 | [5] 0.084 | [6] -0.047 | duvelisib 0.023 | gandotinib -0.034 | tozasertib -0.034 | [7] 0.003 | doramapimod 0.016 | ispinesib -0.001

YWHAH (UniProt Q04917)
inactive: [1] 0.148 | filanesib -0.011 | zotarolimus 0.021 | idasanutlin -0.007 | alisertib -0.046 | [2] -0.026 | gefitinib 0.024 | [3] 0.002 | lapatinib 0.006 | pictilisib -0.009 | [4] 0.024 | crizotinib 0.03 | [5] 0.105 | [6] -0.043 | duvelisib -0.024 | gandotinib -0.033 | tozasertib 0.033 | [7] 0.019 | doramapimod -0.075 | ispinesib 0.09

ZDHHC18 (UniProt Q9NUE0)
inactive: [1] 0.083 | filanesib -0.023 | zotarolimus -0.051 | idasanutlin 0.018 | alisertib -0.034 | [2] 0.05 | gefitinib -0.104 | [3] 0.067 | lapatinib 0.038 | pictilisib 0.158 | [4] 0.067 | crizotinib 0.016 | [5] -0.035 | [6] -0.152 | duvelisib 0.073 | gandotinib 0.195 | tozasertib -0.02 | [7] -0.103 | doramapimod -0.017 | ispinesib -0.26

YAF2 isoform 5 (UniProt Q8IY57)
inactive: [1] 0.044 | filanesib 0.035 | zotarolimus -0.026 | idasanutlin 0.089 | alisertib -0.078 | [2] -0.031 | gefitinib 0.16 | [3] 0.14 | lapatinib 0.007 | pictilisib 0.092 | [4] -0.033 | crizotinib -0.132 | [5] -0.242 | [6] 0.059 | duvelisib -0.148 | gandotinib -0.147 | tozasertib 0.065 | [7] 0.044 | doramapimod 0.106 | ispinesib 0.162

YIPF3 (UniProt Q9GZM5)
inactive: [1] 0.076 | filanesib -0.015 | zotarolimus 0.012 | idasanutlin -0.109 | alisertib -0.046 | [2] -0.002 | gefitinib 0.025 | [3] 0.047 | lapatinib -0.058 | pictilisib 0.005 | [4] -0.026 | crizotinib 0.036 | [5] 0.038 | [6] -0.05 | duvelisib 0.073 | gandotinib 0 | tozasertib 0.049 | [7] -0.028 | doramapimod -0.05 | ispinesib 0.055

ZCCHC8 (UniProt Q6NZY4)
inactive: [1] -0.023 | filanesib -0.024 | zotarolimus 0.025 | idasanutlin 0.024 | alisertib -0.096 | [2] -0.013 | gefitinib -0.045 | [3] -0.031 | lapatinib 0.065 | pictilisib 0.028 | [4] 0.017 | crizotinib -0.004 | [5] -0.007 | [6] -0.031 | duvelisib 0.023 | gandotinib 0.048 | tozasertib 0.002 | [7] 0.029 | doramapimod -0.014 | ispinesib 0.022

2 consecutive entries from above, for reference:
ZDHHC18 (UniProt Q9NUE0)
inactive: [1] 0.083 | filanesib -0.023 | zotarolimus -0.051 | idasanutlin 0.018 | alisertib -0.034 | [2] 0.05 | gefitinib -0.104 | [3] 0.067 | lapatinib 0.038 | pictilisib 0.158 | [4] 0.067 | crizotinib 0.016 | [5] -0.035 | [6] -0.152 | duvelisib 0.073 | gandotinib 0.195 | tozasertib -0.02 | [7] -0.103 | doramapimod -0.017 | ispinesib -0.26

YAF2 isoform 5 (UniProt Q8IY57)
inactive: [1] 0.044 | filanesib 0.035 | zotarolimus -0.026 | idasanutlin 0.089 | alisertib -0.078 | [2] -0.031 | gefitinib 0.16 | [3] 0.14 | lapatinib 0.007 | pictilisib 0.092 | [4] -0.033 | crizotinib -0.132 | [5] -0.242 | [6] 0.059 | duvelisib -0.148 | gandotinib -0.147 | tozasertib 0.065 | [7] 0.044 | doramapimod 0.106 | ispinesib 0.162

Next part.

ZC3H15 (UniProt Q8WU90)
inactive: [1] -0.002 | filanesib 0.148 | zotarolimus 0 | idasanutlin 0.046 | alisertib -0.029 | [2] 0.053 | gefitinib -0.023 | [3] -0.029 | lapatinib -0.028 | pictilisib 0.009 | [4] 0.054 | crizotinib -0.066 | [5] -0.075 | [6] 0.034 | duvelisib -0.028 | gandotinib 0.073 | tozasertib -0.026 | [7] -0.017 | doramapimod 0.054 | ispinesib -0.011

ZBTB8OS (UniProt Q8IWT0)
inactive: [1] 0.004 | filanesib -0.159 | zotarolimus -0.132 | idasanutlin -0.048 | alisertib -0.038 | [2] 0.059 | gefitinib 0.009 | [3] -0.009 | lapatinib -0.032 | pictilisib 0.184 | [4] 0.004 | crizotinib -0.089 | [5] 0.079 | [6] 0.176 | duvelisib 0.128 | gandotinib -0.042 | tozasertib 0.017 | [7] 0.037 | doramapimod 0.039 | ispinesib 0.054

ZNF148 (UniProt Q9UQR1)
inactive: [1] -0.122 | filanesib -0.139 | zotarolimus 0.026 | idasanutlin -0.213 | alisertib -0.073 | [2] -0.009 | gefitinib 0.157 | [3] -0.096 | lapatinib -0.002 | pictilisib 0.176 | [4] 0.056 | crizotinib 0.051 | [5] -0.026 | [6] 0.045 | duvelisib -0.061 | gandotinib -0.1 | tozasertib -0.052 | [7] -0.055 | doramapimod -0.012 | ispinesib -0.111

ZFYVE19 (UniProt Q96K21)
inactive: [1] -0.084 | filanesib 0.069 | zotarolimus -0.061 | idasanutlin -0.009 | alisertib -0.067 | [2] 0.007 | gefitinib 0.031 | [3] -0.001 | lapatinib 0.054 | pictilisib 0.039 | [4] -0.012 | crizotinib 0.02 | [5] 0.078 | [6] -0.046 | duvelisib 0.008 | gandotinib -0.019 | tozasertib -0.031 | [7] -0.023 | doramapimod -0.005 | ispinesib -0.023

YARS2 (UniProt Q9Y2Z4)
inactive: [1] 0.054 | filanesib 0.158 | zotarolimus 0.058 | idasanutlin -0.056 | alisertib -0.111 | [2] 0.23 | gefitinib 0.091 | [3] 0.125 | lapatinib -0.338 | pictilisib -0.037 | [4] 0.215 | crizotinib 0.125 | [5] 0.201 | [6] -0.074 | duvelisib 0.122 | gandotinib 0.079 | tozasertib -0.076 | [7] 0.072 | doramapimod 0.092 | ispinesib 0.006

ZC3HAV1 (UniProt Q7Z2W4)
inactive: [1] -0.039 | filanesib 0.304 | zotarolimus 0.04 | idasanutlin 0.383 | alisertib -0.088 | [2] 0.016 | gefitinib -0.023 | [3] -0.211 | lapatinib 0.211 | pictilisib -0.136 | [4] 0.035 | crizotinib -0.045 | [5] -0.419 | [6] 0.463 | duvelisib -0.104 | gandotinib 0.252 | tozasertib 0.072 | [7] 0.18 | doramapimod 0.177 | ispinesib -0.334

YARS (UniProt P54577)
inactive: [1] -0.022 | filanesib -0.017 | zotarolimus 0.058 | idasanutlin -0.032 | alisertib -0.037 | [2] 0.021 | gefitinib 0.023 | [3] -0.101 | lapatinib 0.005 | pictilisib -0.017 | [4] 0.023 | crizotinib -0.07 | [5] -0.001 | [6] 0.117 | duvelisib -0.007 | gandotinib -0.041 | tozasertib 0.032 | [7] 0.066 | doramapimod 0.041 | ispinesib -0.115
